Measurements from patent US7956086B2, “Methods for the formulation and manufacture of artesunic acid for injection” (priority 2006, dated 2011).
At least one structure is not confirmed: it was looked up by name or label, or the drawing left a doubt.

What was measured:
[1] = Dissolution of artesunic acid powder in the dissolution medium; assay type: physicochemical
[2] = pH of the constituted 10 mg AS/mL solution; assay type: physicochemical
[3] = Osmolality of the constituted 10 mg AS/mL solution; assay type: physicochemical
[4] = Hydrolysis / stability of dissolved AS in solution; assay type: physicochemical
[5] = Microbial limits test for inhibitory properties of AS (USP 27 <61> & <71>)
[6] = 10 mg AS/mL in bicarbonate/glucose

C[C@H]1[C@H](OC(=O)CCC(=O)O)O[C@@H]2O[C@@]3(C)CC[C@H]4[C@H](C)CC[C@@H]1[C@@]24OO3 (relative stereo) [artesunic acid, butanedioic Acid, [3R-(3α,5a,6,8a,9α,10α,12,12a R*)]-mono(decahydro-3,6,9-trimethyl-3,12-epoxy-12H-pyrano[4,3-j]-1,2-benzodioxepin-10-yl)ester]
time to completely dissolve ([1]; 0.30 M, pH 8.0 sodium phosphate, gentle swirling): 2 to 3 min
rate of dissolution compared with the Guilin product ([1]; Guilin product prepared per its package insert): several fold faster
gaseous evolution on dissolution ([1]; in phosphate): not accompanied by gaseous evolution
pH of solution [2, 6]: 7.9
pH of solution ([2]; 10 mg AS/mL in phosphate): 7.2
osmolality of solution [3, 6]: 410
osmolality of solution ([3]; 10 mg AS/mL in phosphate): 320
appearance of solutions on standing ([4]; after two hrs at ˜24° C., phosphate or bicarbonate/glucose): still visibly clear
rates of decomposition (hydrolysis) in the two media ([4]; phosphate versus bicarbonate/glucose): comparable
inhibitory properties in microbial limits test [5]: no inhibitory properties
